# This is one part of the list. These are further read-outs of the screen, such as a control signal, another cell line or another target. No call is given for them. Compounds called inactive in the main read-out are mostly missing here. The note in brackets gives the kind of curve behind each potency; many fits are weak.
# Test: qHTS Assay to Find Inhibitors of Chronic Active B-Cell Receptor Signaling
# Details: ABC-DLBCL IkBa-CBG/CBR reporter, luminescence ratio (green luciferase fused to IkBa over red control in TMD8 lymphoma cells), 4 h
# In short: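 TMD8 ABC-DLBCL cells carrying doxycycline-inducible green luciferase fused to IkappaBalpha plus unfused red luciferase were exposed to compounds (up to 46 uM) for 4 hrs at 37C. Activity came from the overlap-corrected green/red luminescence ratio.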
# [1] = measured here: IkBa-CBG green luminescence
# [2] = measured here: CBR red luminescence, cell number
Structure (SMILES),AC50 [1],AC50 [2]
COc1ccc(S(=O)(=O)N(CC(=O)N/N=C/c2cccs2)c2cc(C)cc(C)c2)cc1OC,"32.6 µM [rising, partial curve, poor fit]",–
Cc1[nH]n(-c2cccc3ccccc23)c(=O)c1/C=N/NC(=O)c1cccc([N+](=O)[O-])c1,–,"16.4 µM [falling, partial curve, poor fit]"
Cc1ccc(S(=O)(=O)N2CCCC2CNC(=O)c2ccccc2)cc1 (stereo not given),–,"18.4 µM [rising, partial curve, poor fit]"
O=C(CN1CCN(c2ccccc2)CC1)Nc1scc2c1c(=O)oc1ccccc12,–,"22.4 µM [rising, partial curve, poor fit]"
CC(=O)NCCOC(=O)Nc1ccncc1,–,"14.6 µM [rising, partial curve, poor fit]"
N#Cc1ccsc1NC(=O)C1CCN(S(=O)(=O)c2cccs2)CC1,–,"18.4 µM [falling, partial curve, poor fit]"
CC(=O)C1=C(O)C(=O)N(CCCO)C1c1ccccc1 (stereo not given),–,"2.31 µM [rising, partial curve, poor fit]"
CCOC(=O)N1CCN(c2ncnc3c2cnn3-c2ccc(Cl)cc2)CC1,–,"18.4 µM [falling, partial curve, poor fit]"
COc1ccc2cc3cc(C(=O)N(C)C4CCCCC4)oc3nc2c1,–,"2.24 µM [rising, full curve, poor fit]"
COc1ccc(N2CCN(C(=O)CNS(=O)(=O)c3ccc(C)cc3)CC2)cc1,–,"8.91 µM [rising, partial curve, poor fit]"
Cc1cc(C)cc(OCCNC(=O)CCc2ccccc2)c1,–,"7.94 µM [rising, partial curve, poor fit]"
COc1ccc2c(c1)c(=O)oc1c(C)c(OCc3cc(C(=O)O)oc3C)ccc12,–,"2.82 µM [falling, single point]"
COc1ccc(S(=O)(=O)N2CCN(CC(=O)c3ccc(O)c(O)c3)CC2)cc1,–,"12.6 µM [rising, partial curve, poor fit]"
CCN(CC)C(=O)c1cn(-c2ccccc2)nc1-c1ccc2c(c1)OCCO2,–,"35.5 µM [falling, single point]"
CN(C)CCOC(=O)C1(c2ccccc2)CCOCC1,–,"3.98 µM [rising, full curve, poor fit]"
O=C(CSC1=NS(=O)(=O)c2cc(Cl)ccc2N1)Nc1cccc(F)c1,–,"1.3 µM [falling, full curve]"
CC(C)NC(=O)Nc1cccc2c1O[C@H](CN(C)C(=O)Nc1ccccc1)[C@@H](C)CN([C@H](C)CO)C2=O,–,"9.2 µM [rising, partial curve]"
Cc1nn(-c2ccccc2)c(/N=C/c2ccccc2O)c1-c1ccccc1,–,"10.3 µM [falling, partial curve]"
Nc1nc(-c2ccccc2)c(N=Nc2ccc(Cl)cc2)s1,–,"0.184 µM [rising, full curve]"
COC(=O)Cn1c(=NC(=O)c2ccc([N+](=O)[O-])s2)sc2cc(Br)ccc21,–,"13 µM [falling, partial curve, poor fit]"
COc1ccccc1N(C(=O)CCl)c1cn(C(C)=O)c2ccccc12,–,"8.91 µM [falling, partial curve, poor fit]"
COc1ccc(COC(=O)c2ccc(N3CCCC3=O)cc2)cc1F,–,"5.62 µM [rising, full curve, poor fit]"

# Some of the entries so far, with tabs:
Structure (SMILES)	AC50 [1]	AC50 [2]
Cc1cc(C)cc(OCCNC(=O)CCc2ccccc2)c1	–	7.94 µM [rising, partial curve, poor fit]
CN(C)CCOC(=O)C1(c2ccccc2)CCOCC1	–	3.98 µM [rising, full curve, poor fit]
COC(=O)Cn1c(=NC(=O)c2ccc([N+](=O)[O-])s2)sc2cc(Br)ccc21	–	13 µM [falling, partial curve, poor fit]

# Further structures:

Structure (SMILES),AC50 [1],AC50 [2]
N=c1c2c(-c3ccccc3)c(-c3ccccc3)n(Cc3ccco3)c2ncn1CCN1CCOCC1,–,"3.16 µM [falling, single point]"
O=c1[nH]c(N/N=C\c2ccc3c(c2)OCO3)nc2ccccc12,–,"6.31 µM [falling, partial curve]"
CCNC(=S)Nc1cc(OC)c(NC(=O)c2ccco2)cc1OC,"10 µM [rising, partial curve, poor fit]",–
COc1cccc2sc3ccc(C#Cc4ccc(N)cc4)cc3c(=O)c12,–,"11.2 µM [rising, partial curve, poor fit]"
O=C(O)c1ccc(NS(=O)(=O)c2ccc(N3CCCC3)c([N+](=O)[O-])c2)cc1,–,"6.31 µM [rising, single point]"
O=C(Nc1ccc(F)cc1)Nc1cccnc1Cl,–,"12.6 µM [falling, partial curve]"
COc1ccc2cc3cc(C(=O)NCCCN4CCC(C)CC4)oc3nc2c1,–,"14.1 µM [falling, single point]"
CCOC(=O)c1ccc(NC(=S)NCCc2ccccc2F)cc1,–,"0.447 µM [falling, full curve]"
Cc1onc(-c2ccccc2Cl)c1C(=O)OCC(=O)N1CCC(C)CC1,–,"0.651 µM [rising, full curve, poor fit]"
C/C(N)=C(/C#N)C(=O)COC(=O)c1ccccc1Oc1ccccc1,–,"35.5 µM [falling, single point]"
CC(C)c1ccc(C(C)NC(=S)NC2CCCCC2)cc1 (stereo not given),–,"3.98 µM [rising, single point]"
Cc1cccc(NC(=O)CCc2ccc(C)o2)c1,–,"29.1 µM [falling, single point]"
CN1CCN(C(=O)C2=C[C@H](c3coc4ccccc4c3=O)C[C@H](OCCCCO)O2)CC1,–,"3.16 µM [falling, partial curve, poor fit]"
O=C(NCc1ccccc1)C(=O)c1cn(CC(=O)N2CCOCC2)c2ccccc12,–,"1.78 µM [falling, partial curve, poor fit]"
CCOC(=O)c1sc(-c2ccccn2)nc1C,–,"3.98 µM [rising, full curve, poor fit]"
O=C(Nc1ccccn1)c1ccc(Cl)s1,–,"35.5 µM [falling, single point]"
COc1ccc(NC(=O)C2=C(C)NC(=O)NC2c2cccc(OC)c2OC)c(OC)c1 (stereo not given),–,"6.51 µM [rising, single point]"
COc1ccc(C2=NCCn3nc4ccccc4c32)cc1,–,"0.651 µM [falling, partial curve, poor fit]"
CCOc1ncccc1C(=O)N1CCN(c2cccc(C)c2C)CC1,"10 µM [falling, partial curve]","8.91 µM [rising, partial curve]"
CCOC(=O)Cc1csc(SCc2cc(=O)oc3cc(O)ccc23)n1,–,"23.1 µM [falling, partial curve, poor fit]"
Cc1nc2ccccc2c2oc(C(=O)NC3CC3)cc12,–,"14.6 µM [falling, single point]"
N#Cc1cc2c(nc1SCc1cccnc1)CCCC2,–,"2.82 µM [falling, full curve]"

Structure (SMILES),AC50 [1],AC50 [2]
COc1cccc(C(=O)O/N=C(\N)c2ccccn2)c1OC,–,"0.447 µM [falling, full curve, poor fit]"
CCN(CC(O)CON=C1c2ccccc2-c2ccccc21)S(=O)(=O)c1ccc(Cl)cc1 (stereo not given),–,"29.1 µM [falling, single point]"
c1ccc(-c2noc(-c3ccccc3-c3ccccc3)n2)cc1,–,"29.1 µM [rising, single point]"
O=C(CN1CCC(n2cnc3cc(F)ccc32)CC1)Nc1ccccc1Br,–,"35.5 µM [falling, single point]"
Cc1ccc(C)c(S(=O)(=O)NCc2ccc(C(=O)NCc3ccccn3)cc2)c1,–,"2.06 µM [rising, partial curve, poor fit]"
Clc1ccc(-c2nnc(SCc3nc4ccccc4s3)o2)cc1,–,"29.1 µM [rising, single point]"
COc1cc(NC(=O)c2cnc(NCc3ccccc3)nc2C)cc(OC)c1OC,–,"7.94 µM [falling, partial curve, poor fit]"
O=C(O)c1ccc2c(c1)C(=O)N(c1ccc(/C=C/C(=O)c3ccccc3)cc1)C2=O,–,"11.2 µM [falling, partial curve]"
Cn1c2c(c(=O)n(C)c1=O)C(CC(=O)Nc1ccccc1F)C(=O)N2 (stereo not given),–,"0.398 µM [falling, full curve]"
Cc1cc(C)c(NC(=O)CS(=O)CC(=O)N2CCN(c3ccc(F)cc3)CC2)c(C)c1 (stereo not given),–,"35.5 µM [falling, single point]"
COC(=O)c1cc2c(ccn2-c2ccc(F)cc2)n1CC(C)C,–,"1.41 µM [rising, full curve, poor fit]"
N#CC1(Nc2cccc(Br)c2)C(=O)Nc2ccccc21 (stereo not given),–,"8.91 µM [falling, partial curve, poor fit]"
Cc1cc(=O)oc2cc(OC(C)C(=O)NCc3ccccn3)ccc12 (stereo not given),–,"12.6 µM [rising, single point]"
O=C1CCCCN1CCC(=O)N1CCCC(Nc2ccc(F)c(F)c2)C1 (stereo not given),–,"3.55 µM [falling, partial curve, poor fit]"
Cc1cccc(/C=N/NC(=O)c2cccc(NC(=O)c3ccccc3)c2)n1,–,"35.5 µM [falling, single point]"
N#C/C(=N\Nc1ccc(Cl)cc1)C(=N)N1CCCCCC1,–,"0.355 µM [rising, full curve, poor fit]"
NC(=O)N1c2ccccc2CC(=O)c2ccccc21,–,"35.5 µM [rising, single point]"
Cc1c(OCC(=O)N[C@@H](Cc2ccccc2)C(=O)O)ccc2c1oc(=O)c1ccccc12,–,"8.91 µM [falling, partial curve]"
O=C(CSc1nnc(C2CC2)n1C1CC1)c1ccc(F)cc1,–,"29.1 µM [falling, single point]"
CCOC(=O)N1CCN(C(=O)c2oc(=O)c3ccccc3c2-c2ccc(C)cc2)CC1,–,"35.5 µM [falling, single point]"

# From PubChem BioAssay AID493014 (National Center for Advancing Translational Sciences (NCATS), 2011)
